This note sets out measurements from paper PMC6092121, “Structure of mouse protocadherin 15 of the stereocilia tip link in complex with LHFPL5” (eLife, 2018).

Protein sequences, listed by entry. Tags and fused reporters are not part of them. Lines headed by an entry give the natural chain unless they say otherwise; changes in a name come on top. Chains listed by the source or under a name are the forms on record and can include a tag or linker.
PCDH15_(4EC) Δ1413, Glu1373 mutated to cysteine (Q99PJ1, form named): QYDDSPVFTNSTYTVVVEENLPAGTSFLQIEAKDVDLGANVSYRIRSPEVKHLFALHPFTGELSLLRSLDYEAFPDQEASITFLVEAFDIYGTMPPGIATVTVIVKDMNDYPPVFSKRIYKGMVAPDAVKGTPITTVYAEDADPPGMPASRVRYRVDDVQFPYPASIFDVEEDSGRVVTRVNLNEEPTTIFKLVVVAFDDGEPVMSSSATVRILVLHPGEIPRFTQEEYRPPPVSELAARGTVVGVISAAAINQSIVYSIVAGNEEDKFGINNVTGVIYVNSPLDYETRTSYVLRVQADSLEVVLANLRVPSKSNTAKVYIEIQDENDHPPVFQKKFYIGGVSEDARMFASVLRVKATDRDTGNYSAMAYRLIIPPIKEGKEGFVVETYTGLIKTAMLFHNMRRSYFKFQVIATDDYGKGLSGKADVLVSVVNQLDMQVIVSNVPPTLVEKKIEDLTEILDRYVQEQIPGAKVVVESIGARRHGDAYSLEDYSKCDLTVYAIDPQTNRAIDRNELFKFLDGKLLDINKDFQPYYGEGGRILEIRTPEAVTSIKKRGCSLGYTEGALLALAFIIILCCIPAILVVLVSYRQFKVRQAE
PCDH15_(4EC) Δ1413, residue 1377 (Tyr1377) mutated to cysteine (Q99PJ1, form named): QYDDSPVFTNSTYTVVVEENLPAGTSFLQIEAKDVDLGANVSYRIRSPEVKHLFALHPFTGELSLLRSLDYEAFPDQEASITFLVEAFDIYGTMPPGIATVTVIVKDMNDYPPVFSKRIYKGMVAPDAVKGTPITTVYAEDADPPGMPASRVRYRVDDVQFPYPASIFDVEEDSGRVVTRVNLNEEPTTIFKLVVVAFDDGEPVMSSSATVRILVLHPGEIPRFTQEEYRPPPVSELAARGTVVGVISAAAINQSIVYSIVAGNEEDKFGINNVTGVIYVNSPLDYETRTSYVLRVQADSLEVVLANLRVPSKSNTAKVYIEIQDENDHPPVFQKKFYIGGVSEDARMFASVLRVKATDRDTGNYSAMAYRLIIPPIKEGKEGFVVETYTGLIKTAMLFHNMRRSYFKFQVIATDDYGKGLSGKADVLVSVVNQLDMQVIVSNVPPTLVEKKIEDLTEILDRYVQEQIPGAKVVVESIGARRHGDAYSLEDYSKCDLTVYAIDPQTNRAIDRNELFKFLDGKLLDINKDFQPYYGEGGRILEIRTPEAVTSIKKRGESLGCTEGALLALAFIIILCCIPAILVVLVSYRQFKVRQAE
PCDH15_(4EC) (mouse protocadherin 15, EC8 to CR) with mVenus-8xHis (Q99PJ1, form named): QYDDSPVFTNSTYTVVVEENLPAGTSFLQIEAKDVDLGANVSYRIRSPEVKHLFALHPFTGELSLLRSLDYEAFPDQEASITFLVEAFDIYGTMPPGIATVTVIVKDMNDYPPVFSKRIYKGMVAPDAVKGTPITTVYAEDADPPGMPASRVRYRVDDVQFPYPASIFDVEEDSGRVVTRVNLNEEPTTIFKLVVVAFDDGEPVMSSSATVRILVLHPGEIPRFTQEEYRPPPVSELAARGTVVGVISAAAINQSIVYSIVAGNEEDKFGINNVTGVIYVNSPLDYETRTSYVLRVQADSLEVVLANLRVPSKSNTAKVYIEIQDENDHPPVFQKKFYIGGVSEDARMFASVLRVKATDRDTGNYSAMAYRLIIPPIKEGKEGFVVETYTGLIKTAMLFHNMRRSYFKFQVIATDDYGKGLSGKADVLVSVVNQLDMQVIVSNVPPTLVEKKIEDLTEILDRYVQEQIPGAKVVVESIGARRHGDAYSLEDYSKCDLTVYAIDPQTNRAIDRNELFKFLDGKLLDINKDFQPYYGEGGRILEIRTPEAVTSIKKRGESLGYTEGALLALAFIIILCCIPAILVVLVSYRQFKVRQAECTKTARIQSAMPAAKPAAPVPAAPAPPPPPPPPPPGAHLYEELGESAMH

The target in assay [1] is PCDH15_(4EC) Δ1413, Glu1373 mutated to cysteine (mouse (Mus musculus)) (UniProt Q99PJ1). Kind of assay: cross-linking; spontaneous disulfide formation of single-cysteine mutants of PCDH15_(4EC) Δ1413 co-expressed with LHFPL5 in HEK293 tsa201; lysates in 1% digitonin, 150 mM NaCl, 50 mM Tris pH 8.0, 1 mM CaCl2; SDS-PAGE with 40 mM N-ethylmaleimide (oxidizing) or 500 mM β-mercaptoethanol (reducing); in-gel fluorescence.

The target in assay [2] is PCDH15_(4EC) Δ1413, residue 1377 (Tyr1377) mutated to cysteine (mouse (Mus musculus)) (UniProt Q99PJ1). The description is as above.
Assay [3] concerns the target T1, LHFPL5 (lipoma HMGIC fusion partner-like 5) with Strep-mCerulean (mouse (Mus musculus)) (UniProt Q4KL25).
T1 sequence: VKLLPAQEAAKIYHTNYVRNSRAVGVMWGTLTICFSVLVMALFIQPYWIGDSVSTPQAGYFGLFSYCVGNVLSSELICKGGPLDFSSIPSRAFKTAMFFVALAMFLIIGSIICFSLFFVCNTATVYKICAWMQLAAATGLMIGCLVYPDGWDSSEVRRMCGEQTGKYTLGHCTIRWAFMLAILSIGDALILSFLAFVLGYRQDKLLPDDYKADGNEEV
The assay can be described thus: pull-down; lysates of co-transfected HEK293 tsa201 cells bound to StrepTactin resin (Strep tag on the mCerulean-tagged partner), washed in 1 mM DDM, 20 mM Tris pH 8.0, 150 mM NaCl, eluted with 10 mM desthiobiotin; eluates analysed by mcFSEC.

In assay [4] the target is T1, LHFPL5 (lipoma HMGIC fusion partner-like 5) with Strep-mCerulean (mouse (Mus musculus)). Kind of assay: SEC; multicolor fluorescence-detection SEC (mcFSEC) of clarified lysates of co-transfected HEK293 tsa201 cells; 20 mM DDM lysis, 50 mM Tris pH 8.0, 150 mM NaCl; Superose 6 Increase 10/300 GL; mVenus and mCerulean fluorescence. For orientation: Size exclusion chromatography separates by hydrodynamic size, large species first.

Results are given in words; binding and its absence hold for the method and conditions named. For some of these results: In cells and extracts the contact can be indirect. Some entries that bind do so weakly or less than the wild type. For some of these results: Tags and fused reporters may be left off the sequences shown.

Regarding “PCDH15_(4EC) Δ1413, Glu1373 mutated to cysteine (from UniProt Q99PJ1 27-30; Q99PJ1 821-1413) (domain or fragment)”, the binding entry in assay [1] is listed as “binds”.
For “PCDH15_(4EC) Δ1413, residue 1377 (Tyr1377) mutated to cysteine (from UniProt Q99PJ1 27-30; Q99PJ1 821-1413) (domain or fragment)”, in assay [2], the binding entry was “binds”.
Turning to “PCDH15_(4EC) (mouse protocadherin 15, EC8 to CR) with mVenus-8xHis (from UniProt Q99PJ1 27-30; Q99PJ1 821-1462) (domain or fragment)”, the binding result in assay [3] and in assay [4] was “binds” in each case.
